Assay results published in paper doi:10.1101/2021.06.06.447270.
Read-outs that look alike come from different tables or passages of the source. Results are given in words; binding and its absence hold for the method and conditions named. In cells and extracts the contact can be indirect. Some results given as binding are weak or reduced against the parent protein; the word gives no strength.

Sequences of proteins named here, by UniProt entry; tags and fusion partners are left off. A change or cut given only in a name is not applied to a line headed by its entry.
UniProt Q08857: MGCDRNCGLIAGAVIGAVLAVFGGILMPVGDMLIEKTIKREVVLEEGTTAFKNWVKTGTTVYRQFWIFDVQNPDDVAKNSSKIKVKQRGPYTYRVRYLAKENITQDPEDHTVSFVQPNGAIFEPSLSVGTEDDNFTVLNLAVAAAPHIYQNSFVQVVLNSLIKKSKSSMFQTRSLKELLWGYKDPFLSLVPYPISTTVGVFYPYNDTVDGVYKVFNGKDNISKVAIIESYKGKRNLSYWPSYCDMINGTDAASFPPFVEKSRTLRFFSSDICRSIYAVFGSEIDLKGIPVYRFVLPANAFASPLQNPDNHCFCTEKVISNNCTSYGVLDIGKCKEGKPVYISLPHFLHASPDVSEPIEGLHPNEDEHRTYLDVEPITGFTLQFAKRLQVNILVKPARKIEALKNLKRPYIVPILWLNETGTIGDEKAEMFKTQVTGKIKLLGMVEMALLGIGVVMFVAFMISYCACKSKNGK
UniProt P25911: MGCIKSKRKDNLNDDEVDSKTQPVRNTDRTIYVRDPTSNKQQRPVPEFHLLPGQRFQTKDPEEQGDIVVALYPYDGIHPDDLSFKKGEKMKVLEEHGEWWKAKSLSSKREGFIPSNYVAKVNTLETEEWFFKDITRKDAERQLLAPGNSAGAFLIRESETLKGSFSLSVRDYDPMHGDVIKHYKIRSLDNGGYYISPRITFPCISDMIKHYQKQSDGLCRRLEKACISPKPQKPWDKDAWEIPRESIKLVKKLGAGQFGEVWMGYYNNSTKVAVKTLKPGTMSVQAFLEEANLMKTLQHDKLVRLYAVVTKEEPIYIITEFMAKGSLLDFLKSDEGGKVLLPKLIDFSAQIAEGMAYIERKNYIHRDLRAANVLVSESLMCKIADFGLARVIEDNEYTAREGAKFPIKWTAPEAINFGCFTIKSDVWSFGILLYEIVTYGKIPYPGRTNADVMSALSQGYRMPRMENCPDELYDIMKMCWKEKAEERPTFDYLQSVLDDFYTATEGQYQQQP
UniProt P41241: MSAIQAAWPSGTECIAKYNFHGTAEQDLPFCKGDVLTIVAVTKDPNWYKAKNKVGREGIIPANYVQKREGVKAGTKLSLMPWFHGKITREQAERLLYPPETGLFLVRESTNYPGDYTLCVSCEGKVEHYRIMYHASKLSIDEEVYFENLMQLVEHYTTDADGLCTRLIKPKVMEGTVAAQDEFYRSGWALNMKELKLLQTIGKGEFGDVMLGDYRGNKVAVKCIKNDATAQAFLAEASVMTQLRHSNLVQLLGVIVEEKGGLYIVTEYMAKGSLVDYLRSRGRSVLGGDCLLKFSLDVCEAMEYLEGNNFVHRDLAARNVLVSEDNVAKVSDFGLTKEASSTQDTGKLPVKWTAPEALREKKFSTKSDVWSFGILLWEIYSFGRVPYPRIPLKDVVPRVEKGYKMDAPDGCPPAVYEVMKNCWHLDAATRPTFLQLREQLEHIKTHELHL
UniProt P39688: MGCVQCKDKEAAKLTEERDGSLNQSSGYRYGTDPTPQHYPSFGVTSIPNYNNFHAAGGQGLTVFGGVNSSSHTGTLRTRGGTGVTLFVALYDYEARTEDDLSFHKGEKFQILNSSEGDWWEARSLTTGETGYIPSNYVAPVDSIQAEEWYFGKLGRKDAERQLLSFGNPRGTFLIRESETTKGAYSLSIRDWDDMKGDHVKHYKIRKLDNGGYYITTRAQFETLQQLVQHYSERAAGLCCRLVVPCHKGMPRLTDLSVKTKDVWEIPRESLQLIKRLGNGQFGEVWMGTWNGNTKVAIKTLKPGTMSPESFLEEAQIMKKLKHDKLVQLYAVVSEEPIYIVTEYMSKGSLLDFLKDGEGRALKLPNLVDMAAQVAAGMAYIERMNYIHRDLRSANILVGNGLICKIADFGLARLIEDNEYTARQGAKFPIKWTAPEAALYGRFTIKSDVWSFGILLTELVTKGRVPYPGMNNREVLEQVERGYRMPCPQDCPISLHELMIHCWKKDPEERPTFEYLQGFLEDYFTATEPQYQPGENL

Experiments:
Test in all cases: co-IP
[1] = target: scavenger receptor CD36 (mouse (endogenous in J774A.1)) (UniProt Q08857)
[2] = target: scavenger receptor CD36 (mouse (endogenous in J774A.1)) (UniProt Q08857); remark: listed apart in the source
[3] = target: Src family kinase Lyn (mouse (endogenous in J774A.1)) (UniProt P25911)
[4] = target: Src family kinase Lyn (mouse (endogenous in J774A.1)) (UniProt P25911); remark: listed apart in the source

binding [1] | binding [2] | binding [3] | binding [4] | Substance
binds weakly |  |  |  | C-terminal src kinase (from UniProt P41241 1-450) (enzyme)
binds weakly |  |  |  | Fyn kinase (from UniProt P39688 1-537) (enzyme)
binds | binds weakly |  |  | Src family kinase Lyn (from UniProt P25911 1-512) (enzyme)
 |  | binds weakly | binds | scavenger receptor CD36 (from UniProt Q08857 1-472)
